# Primary screen of a compound library

Amino acid sequences for entries named in this document (tags omitted). Residues count along the entry.
UniProt A4I591, 1-473: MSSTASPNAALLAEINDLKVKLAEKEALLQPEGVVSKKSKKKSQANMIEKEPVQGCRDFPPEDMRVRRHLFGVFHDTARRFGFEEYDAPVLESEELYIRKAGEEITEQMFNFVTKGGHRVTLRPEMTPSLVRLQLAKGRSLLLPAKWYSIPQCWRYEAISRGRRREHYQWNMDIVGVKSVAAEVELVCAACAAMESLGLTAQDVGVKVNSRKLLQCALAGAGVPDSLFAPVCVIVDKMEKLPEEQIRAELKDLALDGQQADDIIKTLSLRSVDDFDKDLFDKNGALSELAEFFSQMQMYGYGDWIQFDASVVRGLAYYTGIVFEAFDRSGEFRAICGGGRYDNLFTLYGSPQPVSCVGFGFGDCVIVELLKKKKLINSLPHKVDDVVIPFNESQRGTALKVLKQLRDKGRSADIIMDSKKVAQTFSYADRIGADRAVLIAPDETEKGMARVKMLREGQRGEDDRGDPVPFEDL
UniProt P9WNZ1, whole entry: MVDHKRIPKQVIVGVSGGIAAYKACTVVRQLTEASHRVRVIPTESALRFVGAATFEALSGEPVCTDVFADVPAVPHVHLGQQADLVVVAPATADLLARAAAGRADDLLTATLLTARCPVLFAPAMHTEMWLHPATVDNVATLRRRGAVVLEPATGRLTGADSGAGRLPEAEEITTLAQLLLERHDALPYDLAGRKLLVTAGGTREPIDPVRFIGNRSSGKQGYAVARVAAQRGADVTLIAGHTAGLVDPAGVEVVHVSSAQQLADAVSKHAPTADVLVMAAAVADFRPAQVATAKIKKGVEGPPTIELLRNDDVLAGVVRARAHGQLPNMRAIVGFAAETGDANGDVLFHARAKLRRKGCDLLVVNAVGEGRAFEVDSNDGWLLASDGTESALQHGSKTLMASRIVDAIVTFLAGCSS
UniProt Q8IDJ8, 1-583: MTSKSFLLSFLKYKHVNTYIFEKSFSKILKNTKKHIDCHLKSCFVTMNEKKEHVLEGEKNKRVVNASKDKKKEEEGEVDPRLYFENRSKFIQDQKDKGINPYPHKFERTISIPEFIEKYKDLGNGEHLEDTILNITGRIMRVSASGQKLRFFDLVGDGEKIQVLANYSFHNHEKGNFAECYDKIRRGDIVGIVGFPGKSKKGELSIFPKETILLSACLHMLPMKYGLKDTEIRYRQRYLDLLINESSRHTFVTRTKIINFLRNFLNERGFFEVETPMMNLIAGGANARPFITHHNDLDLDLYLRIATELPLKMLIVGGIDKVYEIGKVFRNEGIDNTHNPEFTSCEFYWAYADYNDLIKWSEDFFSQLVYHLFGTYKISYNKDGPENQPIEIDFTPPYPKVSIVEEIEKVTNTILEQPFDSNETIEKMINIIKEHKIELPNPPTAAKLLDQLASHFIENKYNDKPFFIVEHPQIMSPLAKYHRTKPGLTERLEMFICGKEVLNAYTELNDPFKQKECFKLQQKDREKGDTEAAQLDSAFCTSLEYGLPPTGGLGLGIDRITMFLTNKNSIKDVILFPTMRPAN
UniProt P9WFT3, whole entry: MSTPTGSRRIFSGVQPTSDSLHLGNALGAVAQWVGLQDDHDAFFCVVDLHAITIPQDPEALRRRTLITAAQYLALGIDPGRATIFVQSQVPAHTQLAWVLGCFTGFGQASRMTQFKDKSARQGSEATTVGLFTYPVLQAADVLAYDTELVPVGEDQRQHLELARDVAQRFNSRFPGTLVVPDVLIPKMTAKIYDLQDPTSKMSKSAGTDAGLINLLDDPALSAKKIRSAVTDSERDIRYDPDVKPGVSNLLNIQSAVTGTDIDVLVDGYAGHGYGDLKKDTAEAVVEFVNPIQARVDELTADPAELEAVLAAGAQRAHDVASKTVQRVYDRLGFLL

Measurements from “University of Dundee, Small-Polar-MMV Screening Library” (2021), ChEMBL document CHEMBL3988442.

LiHisRS: 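Histidine-tRNA ligase, Leishmania infantum (UniProt A4I591). Enzyme assay of histidyl-tRNA synthetase; the read-out is not stated. Concentration: 30 µM. Direction is inferred from retests: higher values go with stronger inhibition. The assay is labelled LdHisRS but filed under L. infantum. Size under these conditions: about 69,000 compounds, about 410 of them at 50% or above in at least one test.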
CoaBC: 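Enzyme assay of CoaBC with a phosphate dye (Biomol Green) read at 650 nm. Target: Coenzyme A biosynthesis protein CoaBC, Mycobacterium tuberculosis (UniProt P9WNZ1). Tested at 30 µM. Higher reads as stronger inhibition, judged from the few compounds that gave an IC50. Most strong results did not repeat in a second test. About 67,000 compounds were tested under these conditions; 0.06% (about 40) showed 50% or more at least once.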
PfKRS1: 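Lysine-tRNA ligase, Plasmodium falciparum 3D7 (UniProt Q8IDJ8). Enzyme assay of the cytosolic lysyl-tRNA synthetase in 384-well plates, read by luminescence. Tested at 30 µM. Direction is inferred from only a few compounds that gave an IC50; most scored high, so higher reads as stronger inhibition. Of about 69,000 compounds tested this way, about 49 (0.071%) reached 50% or more in at least one test.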
MtTrpRS: 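Enzyme assay of tryptophanyl-tRNA synthetase; the read-out is not stated. Target: Tryptophan-tRNA ligase, Mycobacterium tuberculosis (UniProt P9WFT3). Compounds at 10 µM. Higher most likely means stronger inhibition; the record gives no direction and few retests gave an IC50. About 65,000 compounds were tested under these conditions; 0.098% (about 64) showed 50% or more at least once.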

Values are the deposited “Percent Effect”, in %.
How 0% and 100% were set is not recorded. Most values in the screen are low, and negative values occur.
The compounds are a random part of those screened.
Two or more numbers in one place are separate tests of the same structure; such repeats can differ widely.
A dash means the value is not listed here; it may have been measured.

structure | LiHisRS | CoaBC | PfKRS1 | MtTrpRS
Cc1nn(C)c(C)c1CN(C)C(=O)C1COc2ccccc2C1 (stereo not given) | 18.8% | 4.701% | 2.853% | -5.211%
COCCN1CCCC2(CCN(c3nc(C)nc4c3CCC4)C2)C1=O (stereo not given) | 5.479% | 11.98% | 4.818% | 1.192%
CCCOC1CCCN(Cc2nc(-c3ccc(F)cc3F)oc2C)C1 (stereo not given) | 10.26% | 0.2012% | -0.05646% | -1.583%
Cn1cccc1CN1CCC2(CCCN(C(=O)c3cnccn3)C2)C1 (stereo not given) | 2.913% | 0.8872% | 0.3329% | 4.52%
CN1C(=O)C(c2cccnc2)CC12CCN(CCO)CC2 (stereo not given) | 9.434% | -0.9756% | 2.219% | -
CN(Cc1n[nH]c2c1CCC2)c1nc(C2CCCC2)nc2c1CNC2 | 24.59% | -38.31% | 3.283% | -4.187%
Cc1cc(CNCC2CNc3ccnn3C2)no1 (stereo not given) | 11.67% | 4.084% | 5.053% | 1.639%
CCN(C(=O)NCCc1cccc(F)c1F)C(C)CS(C)(=O)=O (stereo not given) | 5.833% | - | 1.441% | 2.683%
CCCC(=O)NCC(Cc1cccc(F)c1)N1CCCC1=O (stereo not given) | 25.64% | 0.7634% | 4.626% | 3.203%
COCc1noc(CCNc2ncnc3c2CCNCC3)n1 | 13.33% | -3.431% | 1.418% | -2.222%
CC(=O)c1ccc(N2CCC3(CCC(=O)N(C4CC4)C3)CC2)nc1 | 22.37% | -1.935% | 8.318% | 1.005%
O=C(C1CCCO1)N1C[C@@H]2CCN(c3cnccn3)C[C@@H]2C1 (stereo not given in full) | 22.94% | 4.706% | 0.7902% | -1.161%
Cc1nccn1C1CCCN(C(=O)c2cnn(C)c2C2CC2)C1 (stereo not given) | 15.07% | -7.51% | 0.9456% | 4.071%
CO[C@H]1CN(C(=O)c2ccc3oc(C)cc3c2)C[C@@]12CCCO2 | 24.64% | 1.456% | 4.971% | -
CC(=O)N1CCC(CCc2ccnc(Nc3ccccn3)c2)CC1 | 11.59% | -6.045% | -1.75% | 7.878%
COc1ccc(NCC2(O)CCNCC2)cc1OC | 27.08% | 0% | 2.629% | -2.001%
CNC1CCN(C2CCN(c3ccc(-c4ccco4)cc3)CC2)CC1 | 42.06% | 5.405% | -6.861% | 4.556%
COc1ccccc1CN1C[C@@H](F)[C@@H](OCc2nc3cnccc3[nH]2)C1 | 24.32% | 12.77% | 9.61% | -4.5%
CCNc1ccnc(NCc2cn3nc(C)sc3n2)n1 | 19.28% | -9.223% | 4.851% | -6.902%
Cc1nc(CN2CCN(Cc3nccn3C)CC2)no1 | 20.27% | 6.91% | 1.184% | -4.983%
CN1C(=O)C(C)(C)COc2ccc(NS(=O)(=O)Cc3ccccc3)cc21 | 2.247% | -0.8424% | 4.687% | -0.4402%
CCc1nn(C)c(Cl)c1CN1CCC2(C1)CN(C)C(=O)O2 (stereo not given) | 15.66% | -4.391% | 2.385% | 1.683%
Cc1ncsc1-c1nnc(C2CCN(Cc3cccc(Cl)c3)CC2)o1 | 13.04% | 0.4854% | 3.205% | -
Cc1ccc(S(=O)(=O)N2C[C@H]3C[C@H](NC(=O)c4ccn(C)n4)[C@H]3C2)cc1 | 22.22% | 0.8333% | 6.109% | 1.923%
Cc1ccccc1-n1ccc2nc(N3CCCC3)ncc2c1=O | 10% | 3.212% | 4.913% | -1.952%
CCC1CCCN(S(=O)(=O)c2cnn(C)c2)C1 (stereo not given) | 35.62% | 1.195% | 0.6987% | -2.197%
CC(=O)N1C[C@H](c2cc(O)nc(C)n2)[C@@H](c2ccccc2F)C1 | 12.68% | 2.219% | 0.01415% | -2.902%
Cc1cc(=O)n(C)cc1NC(=O)CC1CCC1 | 75% | -2.195% | 24.22% | 4.584%
CN(C)CC1(O)CCCN(C(=O)c2cnc(-c3ccccn3)nc2)C1 (stereo not given) | 15.38% | -4.628% | 1.75% | -6.425%
Cn1cccc(NC(=O)NCCOCc2ccccc2)c1=O | 21.98% | 2.317% | 2.788% | 3.179%
CNC(=O)CCOC(=O)c1cccc(-n2ccc(C(F)(F)F)n2)c1 | 2.222% | -0.7299% | -3.614% | -2.977%
CCN(CC)Cc1ccccc1NCc1c(C)noc1C | 12.12% | 5.444% | -1.971% | 0.8073%
O=C(CCC(F)(F)F)N1CCCC(c2ncc[nH]2)C1 (stereo not given) | 18.07% | -0.1266% | 2.177% | -1.224%
Cc1cc(CN2CCC(CNC(=O)c3ccc4[nH]cnc4c3)C2)[nH]n1 (stereo not given) | 27.63% | 0% | 8.781% | -1.954%
CCn1c(C)nnc1CN(C)C1CCN(Cc2ccon2)C1 (stereo not given) | 13.11% | -10.3% | 4.194% | -1.671%
O=C1CN(C(=O)c2cccc(C(F)(F)F)c2)CC(O)CN1CC1CC1 (stereo not given) | -8.163% | -3.632% | 3.912% | -
Cc1cc(=O)[nH]c(=O)n1COCCOCc1ccccc1 | 21.74% | -2.066% | 3.577% | -1.286%
COCCc1noc(CN2CCN(c3ccc(OC)cc3)C(=O)C2C)n1 (stereo not given) | -3.614% | 3.639% | -0.7655% | 0.4591%
Cn1ccc(C(=O)NCc2cccc(CN3CCCC3)c2)cc1=O | 31.25% | 3.426% | 2.837% | -0.07337%
O=C(Nc1ccc(-c2nnc[nH]2)cc1)C1CCN1Cc1ccccc1 (stereo not given) | -2.703% | 4.28% | 4.415% | 4.938%
Cc1ccc(CNC(=O)N2CCc3ccccc3C2CO)s1 (stereo not given) | 8.108% | 5.058% | 7.654% | 4.179%
CN(C)C(=O)N1C[C@@H]2CC[C@H](C1)N(Cc1nnc(-c3ccccc3)o1)C2 | 20.88% | 0.9639% | 2.059% | 5.372%
O=C(NC[C@H]1O[C@H](Cc2cc(-c3ccccn3)on2)CC[C@@H]1O)C1CC1 | 11.11% | 0.9677% | 5.535% | 1.766%
CCC1CN(c2cnn(-c3ccccc3)c(=O)c2Cl)CCO1 (stereo not given) | 5.714% | - | 2.326% | -2.786%
OCC1(Cc2ccccc2F)CCCN(c2ccc3ccccc3n2)C1 (stereo not given) | 11.5% | 14.23% | 4.839% | -1.424%
CN(CC(=O)N1CCCC1c1cnn(C)c1)Cc1ccccc1 (stereo not given) | 20% | 4.337% | 0.9491% | -7.733%
CC(C)(CNC(=O)C(C)(C)Oc1ccc2c(c1)CCCC2=O)C(N)=O | -49.3% | - | 1.674% | 4.944%
COc1cc2c(cc1CN1CCCCC1CN1CCOCC1)CCC2 (stereo not given) | 22.39% | 4.016% | 8.366% | -0.6369%
O=C(CN1CCc2c(ncn2C2CC2)C1)NC1CC1 | 10.81% | 4.439% | 4.476% | -2.437%
CN1CCOC[C@H]1c1nc(C(C)(C)C)c[nH]1 | 22.97% | 16.11% | -4.439% | 5.539%
Cc1n[nH]c(C)c1CCc1ccc(S(C)(=O)=O)cc1 | 11.11% | -3.163% | 4.967% | -2.542%
COCCn1c(C(=O)NCc2n[nH]c(C)n2)cc2ccccc21 | 4.712% | 10.43% | 3.018% | -4.721%
Cc1noc([C@@H]2C[C@H](NS(=O)(=O)Cc3ccccc3)CN2C)n1 | 32.43% | 5.291% and 25.74% | 6.539% | -0.8391%
CCN1C(=O)CCCC12CCCN(C(=O)c1ccncc1F)C2 (stereo not given) | 9.615% | 3.515% | 5.38% | -
Cc1ccc(NC(=O)CN2CCC(OCC3CCCO3)CC2)c(C)c1 (stereo not given) | 15.32% | 0% | 12.05% | -2.279%
CC(C)(NS(C)(=O)=O)c1nc(-c2ccc(F)c(F)c2)no1 | 18.68% | 0.241% | -0.183% | 0.9709%
Cc1noc([C@H]2COC[C@H]3CN(C(=O)Cc4ccccc4F)C[C@H]32)n1 | 12.82% | 1.003% | 3.281% | 0.2766%
Cc1nccn1-c1cc(CNC(=O)CCC2CCCO2)ccn1 (stereo not given) | 37.88% | -6.845% | 1.077% | -0.8772%
O=C(c1ccc[nH]1)N1CCc2c(COCC3CC3)cncc2C1 | 12.03% | 3.856% | -0.5239% | -1.133%
COc1ncccc1CN1C[C@H]2CCN(c3ccc(C)nn3)C[C@H]2C1 | 15.38% | 2.061% | 1.279% | -
COc1ccc(CNc2c(C)cnc3c2c(=O)n(C)c(=O)n3C)cc1 | 20.51% | 1.272% | -1.575% | -0.5882%
O=C(CCC1CCN(C2CSCCSC2)CC1)NCC1CCCO1 (stereo not given) | 16.33% | 1.607% | 4.893% | 4.169%
CC(C)C1COC2(CCN(Cc3ccco3)CC2)C1 (stereo not given) | 3.883% | 3.562% | 2.226% | -2.183%